Reference: US11684644B2, “Composition for promoting absorption of phytochemicals” (MEIJI CO., LTD., priority 2018, dated 2023)
Some entries share one result that the patent states for a list of compounds. For at least one compound, name, drawing or mass did not settle the structure.

Experiment: Evaluation for dissolvability of phytochemical (dissolution rate in water)
Conditions: ultrapure water, shaken for 3 hours, centrifuged supernatant, 21±2° C.; listed as hesperidin
Excerpt: In the present invention, the “dissolution rate” is an index indicating dissolvability of a compound into water, and is also represented by the value, in terms of the percentage (%), obtained by dividing a concentration (w/v) of the compound in a supernatant, which is obtained by shaking the compound in pure water to dissolve the compound therein and by centrifuging the solution, by a concentration (w/v) of the compound in pure water before being dissolved therein. The concentration may be measured by using a spectrophotometer. […] The temperature condition in the measurement of the “dissolution rate” is set to 21±2° C.
Furthermore, 10 mL of ultrapure water was added to the glucoside phytochemical such that the amount of aglycone (portion other than carbohydrate obtained by hydrolysis of glucoside) can be equal to 33.3 mg; namely, 67.3 mg of rutin (33.3 mg of quercetin); 89.6 mg of α-glucosyl rutin (33.3 mg of quercetin); 67.3 mg of hesperidin (33.3 mg of hesperetin); or 71.0 mg of naringin (33.3 mg of naringenin). As for the terpenoids, in accordance with the administering amount used in Experiments, 10 mL of ultrapure water was added to 3.3 mg of each of β-carotene and lycopene. The solutions thus prepared were shaken for 3 hours, and then, were centrifuged at 2000×g for 10 minutes. […] The dissolution rate was calculated in accordance with the following formula. […]

Work on COc1ccc([C@@H]2CC(=O)c3c(O)cc(O[C@@H]4O[C@H](CO[C@@H]5O[C@@H](C)[C@H](O)[C@@H](O)[C@H]5O)[C@@H](O)[C@H](O)[C@H]4O)cc3O2)cc1O [Hesperidin] yielded a Dissolution rate of at most 88%.
